From the supplement of paper PMC12823440, “Inhibitors supercharge kinase turnover through native proteolytic circuits” (Nature, 2025) come the findings set out here.

Sequences of proteins named here, by UniProt entry; tags and fusion partners are left off.
UniProt P29317, whole entry: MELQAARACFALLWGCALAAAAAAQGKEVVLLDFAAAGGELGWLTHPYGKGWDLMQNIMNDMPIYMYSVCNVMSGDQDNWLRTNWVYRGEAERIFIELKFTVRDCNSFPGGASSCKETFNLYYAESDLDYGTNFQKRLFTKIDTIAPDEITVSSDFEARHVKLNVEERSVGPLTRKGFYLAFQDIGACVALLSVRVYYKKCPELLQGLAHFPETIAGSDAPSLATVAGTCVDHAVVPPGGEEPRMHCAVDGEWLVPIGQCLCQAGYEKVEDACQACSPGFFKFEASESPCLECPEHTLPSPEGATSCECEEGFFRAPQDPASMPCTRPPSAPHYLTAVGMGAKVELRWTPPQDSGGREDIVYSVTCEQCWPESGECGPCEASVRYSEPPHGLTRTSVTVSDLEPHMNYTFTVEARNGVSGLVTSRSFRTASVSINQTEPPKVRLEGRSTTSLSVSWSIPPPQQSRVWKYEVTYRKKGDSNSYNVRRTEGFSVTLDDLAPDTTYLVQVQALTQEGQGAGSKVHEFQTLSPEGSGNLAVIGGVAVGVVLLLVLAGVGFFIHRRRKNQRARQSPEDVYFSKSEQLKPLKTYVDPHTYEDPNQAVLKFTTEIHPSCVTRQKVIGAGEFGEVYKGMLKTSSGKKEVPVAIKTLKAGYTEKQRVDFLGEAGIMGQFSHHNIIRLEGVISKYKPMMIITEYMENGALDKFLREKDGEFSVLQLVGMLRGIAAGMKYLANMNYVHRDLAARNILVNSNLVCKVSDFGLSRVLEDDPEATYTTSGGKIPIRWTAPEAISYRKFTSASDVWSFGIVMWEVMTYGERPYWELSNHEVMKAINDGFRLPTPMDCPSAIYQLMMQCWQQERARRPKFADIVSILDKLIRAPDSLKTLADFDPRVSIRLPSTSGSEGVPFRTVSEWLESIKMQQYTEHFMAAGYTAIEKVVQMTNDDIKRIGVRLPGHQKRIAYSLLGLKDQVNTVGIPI
UniProt P21860, whole entry: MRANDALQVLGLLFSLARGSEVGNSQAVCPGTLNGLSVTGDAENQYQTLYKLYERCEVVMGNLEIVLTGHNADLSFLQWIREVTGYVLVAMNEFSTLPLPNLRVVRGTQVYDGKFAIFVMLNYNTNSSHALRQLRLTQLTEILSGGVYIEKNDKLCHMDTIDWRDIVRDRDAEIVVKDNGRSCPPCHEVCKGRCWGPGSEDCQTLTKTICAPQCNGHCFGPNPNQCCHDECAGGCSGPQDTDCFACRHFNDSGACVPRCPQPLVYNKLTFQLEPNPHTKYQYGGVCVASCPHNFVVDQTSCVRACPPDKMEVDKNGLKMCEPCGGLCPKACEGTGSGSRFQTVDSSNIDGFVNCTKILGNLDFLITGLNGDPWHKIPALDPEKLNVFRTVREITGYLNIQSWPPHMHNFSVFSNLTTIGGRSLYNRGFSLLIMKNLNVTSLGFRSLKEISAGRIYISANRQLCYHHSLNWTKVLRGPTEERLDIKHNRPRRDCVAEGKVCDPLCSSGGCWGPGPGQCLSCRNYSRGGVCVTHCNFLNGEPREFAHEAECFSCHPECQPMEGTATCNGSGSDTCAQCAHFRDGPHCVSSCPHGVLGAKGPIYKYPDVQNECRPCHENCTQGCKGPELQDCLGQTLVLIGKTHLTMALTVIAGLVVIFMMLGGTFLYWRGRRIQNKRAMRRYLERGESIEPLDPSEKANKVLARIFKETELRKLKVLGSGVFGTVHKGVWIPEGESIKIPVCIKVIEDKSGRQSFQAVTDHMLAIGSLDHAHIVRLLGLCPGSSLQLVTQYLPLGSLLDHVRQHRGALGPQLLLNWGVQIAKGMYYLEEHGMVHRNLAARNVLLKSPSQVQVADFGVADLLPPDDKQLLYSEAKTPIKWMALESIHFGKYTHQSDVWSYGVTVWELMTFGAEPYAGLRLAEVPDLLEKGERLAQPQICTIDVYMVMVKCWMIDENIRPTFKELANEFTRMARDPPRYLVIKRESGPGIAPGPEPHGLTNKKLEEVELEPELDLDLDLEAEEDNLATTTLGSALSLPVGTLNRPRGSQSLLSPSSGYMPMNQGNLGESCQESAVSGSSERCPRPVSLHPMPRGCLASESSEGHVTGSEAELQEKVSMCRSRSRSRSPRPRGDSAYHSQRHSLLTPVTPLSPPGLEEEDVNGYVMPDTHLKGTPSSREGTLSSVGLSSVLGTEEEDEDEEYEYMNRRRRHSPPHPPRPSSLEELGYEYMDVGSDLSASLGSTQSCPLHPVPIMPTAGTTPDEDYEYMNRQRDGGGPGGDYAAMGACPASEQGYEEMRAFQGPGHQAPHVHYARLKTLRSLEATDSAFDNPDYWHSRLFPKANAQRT
UniProt Q15303, whole entry R711C: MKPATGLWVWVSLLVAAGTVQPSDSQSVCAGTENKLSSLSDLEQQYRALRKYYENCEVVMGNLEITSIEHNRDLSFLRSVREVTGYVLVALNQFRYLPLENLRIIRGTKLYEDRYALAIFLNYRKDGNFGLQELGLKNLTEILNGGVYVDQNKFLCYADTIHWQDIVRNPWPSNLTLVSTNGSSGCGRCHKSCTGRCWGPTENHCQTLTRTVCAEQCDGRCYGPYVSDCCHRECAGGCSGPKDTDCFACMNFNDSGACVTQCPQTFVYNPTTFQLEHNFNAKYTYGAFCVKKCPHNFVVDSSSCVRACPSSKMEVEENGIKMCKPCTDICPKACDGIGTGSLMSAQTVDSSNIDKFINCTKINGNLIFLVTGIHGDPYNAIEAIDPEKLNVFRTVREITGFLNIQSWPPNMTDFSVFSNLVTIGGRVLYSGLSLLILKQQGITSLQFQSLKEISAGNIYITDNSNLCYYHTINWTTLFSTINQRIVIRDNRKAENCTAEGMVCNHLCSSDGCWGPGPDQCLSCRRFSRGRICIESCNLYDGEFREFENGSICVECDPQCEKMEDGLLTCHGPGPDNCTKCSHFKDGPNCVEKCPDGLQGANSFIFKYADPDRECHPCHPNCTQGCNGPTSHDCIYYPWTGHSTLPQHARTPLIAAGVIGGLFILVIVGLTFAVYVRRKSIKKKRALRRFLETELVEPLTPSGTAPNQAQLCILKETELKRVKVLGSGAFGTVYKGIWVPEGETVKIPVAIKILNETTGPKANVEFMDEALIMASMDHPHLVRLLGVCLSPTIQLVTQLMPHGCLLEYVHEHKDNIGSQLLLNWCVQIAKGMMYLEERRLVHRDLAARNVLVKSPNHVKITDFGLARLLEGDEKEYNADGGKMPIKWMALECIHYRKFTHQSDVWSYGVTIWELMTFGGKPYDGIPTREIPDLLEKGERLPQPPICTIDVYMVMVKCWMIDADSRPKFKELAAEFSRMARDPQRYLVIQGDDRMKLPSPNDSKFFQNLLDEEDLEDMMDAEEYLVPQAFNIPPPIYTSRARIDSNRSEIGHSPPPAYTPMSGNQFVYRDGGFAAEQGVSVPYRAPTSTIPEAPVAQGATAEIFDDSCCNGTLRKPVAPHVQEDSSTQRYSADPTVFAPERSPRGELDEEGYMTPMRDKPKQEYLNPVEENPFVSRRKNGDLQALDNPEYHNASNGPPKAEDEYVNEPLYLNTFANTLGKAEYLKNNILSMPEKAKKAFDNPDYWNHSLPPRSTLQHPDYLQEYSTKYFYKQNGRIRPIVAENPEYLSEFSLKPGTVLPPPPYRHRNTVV

Counter-ions that a name gives are not always drawn. This is one part of the list. Hit calls seldom repeat between salt and free forms of one compound.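 Kinases, fused to nanoluciferase, were expressed in K562 cells; luminescence was measured every 4 h from 2 to 18 h as percent of control (DMSO = 100%, positive control = 0%). A time point is decreased if signal falls significantly (2 sigma). Hits were called by the authors by a rule that is not shown; the count of time points alone does not decide it.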

Targets include EGFR (UniProt P00533); EGFR_G719S (UniProt P00533); EGFR_G719S_T790M (UniProt P00533); EGFR_L718V (UniProt P00533); EGFR_L858R (UniProt P00533); EGFR_L861Q (UniProt P00533); EGFR_T790M (UniProt P00533); EPHA2 (UniProt P29317); ERBB3 (UniProt P21860).
Common to all, as to assay: kinase-Nluc reporter destabilization hit call (1 = scored as downregulated) (binary); higher = compound decreases kinase abundance
Holding throughout (settings): K562, 2-18 h

Assay [1] deals with ERBB4_R711C (clone: ERBB4_mut) (UniProt Q15303).

As to `CNC(=O)c1ccc(Nc2ncc(C(F)(F)F)c(NCc3nccnc3N(C)S(C)(=O)=O)n2)cc1` [Defactinib (hydrochloride)], the “kinase-Nluc reporter destabilization hit call” value in the assay with EGFR (10 µM), with EGFR_G719S (10 µM), with EGFR_G719S_T790M (10 µM), in the assay with EGFR_L718V (10 µM), with EGFR_L858R (10 µM) and with EGFR_L861Q (10 µM) was inactive: 0 in each case. Also, the “kinase-Nluc reporter destabilization hit call” value (with EGFR_T790M (10 µM); in the assay with EPHA2 (10 µM); in the assay with ERBB3 (10 µM); in assay [1] (10 µM)) was inactive: 0 each time.
For `CN1CCCN(C(=O)c2cccc(-c3ccc(/C=C4/C(=O)Nc5ccc(Cl)cc54)o3)c2)CC1` [CX-6258 (hydrochloride hydrate)], the “kinase-Nluc reporter destabilization hit call” value in the assay with EGFR (2.5 µM), in the assay with EGFR_G719S (2.5 µM), in the assay with EGFR_G719S_T790M (2.5 µM), with EGFR_L718V (2.5 µM), with EGFR_L858R (2.5 µM) and in the assay with EGFR_L861Q (2.5 µM) was inactive: 0 throughout. The “kinase-Nluc reporter destabilization hit call” value (in the assay with EGFR_T790M (2.5 µM); in the assay with EPHA2 (2.5 µM); with ERBB3 (2.5 µM); in assay [1] (2.5 µM)) was inactive: 0 in each case.
As for `COCCOc1cc(F)c2c(Nc3ccc(NC(=O)Cn4cc(C(C)C)nn4)cc3)ncnc2c1`, the “kinase-Nluc reporter destabilization hit call” value with EGFR (10 µM), in the assay with EGFR_G719S (10 µM), in the assay with EGFR_G719S_T790M (10 µM), with EGFR_L718V (10 µM), in the assay with EGFR_L858R (10 µM) and with EGFR_L861Q (10 µM) was inactive: 0 throughout. Also, the “kinase-Nluc reporter destabilization hit call” value (with EGFR_T790M (10 µM); in the assay with EPHA2 (10 µM); with ERBB3 (10 µM); in assay [1] (10 µM)) was inactive: 0 in each case.
On to `CCc1nc(C(N)=O)c(Nc2ccc(N3CCC(N4CCN(C)CC4)CC3)c(OC)c2)nc1NC1CCOCC1` [Gilteritinib hemifumarate], for which the “kinase-Nluc reporter destabilization hit call” value with EGFR (2 µM), with EGFR_G719S (2 µM), with EGFR_G719S_T790M (2 µM), with EGFR_L718V (2 µM), in the assay with EGFR_L858R (2 µM) and with EGFR_L861Q (2 µM) was inactive: 0 throughout. In addition, the “kinase-Nluc reporter destabilization hit call” value (in the assay with EGFR_T790M (2 µM); with EPHA2 (2 µM); in the assay with ERBB3 (2 µM); in assay [1] (2 µM)) was inactive: 0 throughout.
On to `CC(C)(C)n1nc(-c2cccc3ccccc23)c2c(N)ncnc21` [1-Naphthyl PP1], for which the “kinase-Nluc reporter destabilization hit call” value in the assay with EGFR (10 µM), with EGFR_G719S (10 µM), in the assay with EGFR_G719S_T790M (10 µM), in the assay with EGFR_L718V (10 µM), in the assay with EGFR_L858R (10 µM) and with EGFR_L861Q (10 µM) was inactive: 0 each time. In addition, the “kinase-Nluc reporter destabilization hit call” value (in the assay with EGFR_T790M (10 µM); with EPHA2 (10 µM); in the assay with ERBB3 (10 µM); in assay [1] (10 µM)) was inactive: 0 throughout.
As to `O=C(O)c1ccc2c(c1)nc(Nc1cccc(Cl)c1)c1ccncc12` [Silmitasertib], the “kinase-Nluc reporter destabilization hit call” value was inactive: 0 with EGFR (10 µM); active: 1 in the assay with EGFR_G719S (10 µM); inactive: 0 with EGFR_G719S_T790M (10 µM); inactive: 0 in the assay with EGFR_L718V (10 µM); inactive: 0 in the assay with EGFR_L858R (10 µM); inactive: 0 with EGFR_L861Q (10 µM). Further, the “kinase-Nluc reporter destabilization hit call” value (with EGFR_T790M (10 µM); with EPHA2 (10 µM); in the assay with ERBB3 (10 µM); in assay [1] (10 µM)) was inactive: 0 in each case.
As for `CN1CCCN(C(=O)c2cccc(-c3ccc(/C=C4/C(=O)Nc5ccc(Cl)cc54)o3)c2)CC1`, the “kinase-Nluc reporter destabilization hit call” value with EGFR (2.5 µM), with EGFR_G719S (2.5 µM), with EGFR_G719S_T790M (2.5 µM), with EGFR_L718V (2.5 µM), in the assay with EGFR_L858R (2.5 µM) and in the assay with EGFR_L861Q (2.5 µM) was inactive: 0 each time. Moreover, the “kinase-Nluc reporter destabilization hit call” value (with EGFR_T790M (2.5 µM); with EPHA2 (2.5 µM); with ERBB3 (2.5 µM); in assay [1] (2.5 µM)) was inactive: 0 in each case.
With `CCS(=O)(=O)N1CCN(c2ccc(Nc3ncc(C(N)=O)c(NC4CC4)n3)cc2)CC1` [Cerdulatinib], the “kinase-Nluc reporter destabilization hit call” value with EGFR (10 µM), with EGFR_G719S (10 µM), with EGFR_G719S_T790M (10 µM), with EGFR_L718V (10 µM), in the assay with EGFR_L858R (10 µM) and with EGFR_L861Q (10 µM) was inactive: 0 each time. The “kinase-Nluc reporter destabilization hit call” value (with EGFR_T790M (10 µM); in the assay with EPHA2 (10 µM); in the assay with ERBB3 (10 µM); in assay [1] (10 µM)) was inactive: 0 in each case.
Regarding `Clc1ccc(C2(c3ccc(-c4cn[nH]c4)cc3)CCNCC2)cc1` [AT7867 (dihydrochloride)], the “kinase-Nluc reporter destabilization hit call” value in the assay with EGFR (2.5 µM), in the assay with EGFR_G719S (2.5 µM), with EGFR_G719S_T790M (2.5 µM), with EGFR_L718V (2.5 µM), with EGFR_L858R (2.5 µM) and in the assay with EGFR_L861Q (2.5 µM) was inactive: 0 in each case. Further, the “kinase-Nluc reporter destabilization hit call” value (in the assay with EGFR_T790M (2.5 µM); with EPHA2 (2.5 µM); in the assay with ERBB3 (2.5 µM); in assay [1] (2.5 µM)) was inactive: 0 each time.
Consider `FC(F)(F)c1ccc(CNc2ccc(Cc3c[nH]c4ncc(Cl)cc34)cn2)cn1` [Pexidartinib], for which the “kinase-Nluc reporter destabilization hit call” value with EGFR (10 µM), in the assay with EGFR_G719S (10 µM), with EGFR_G719S_T790M (10 µM), with EGFR_L718V (10 µM), with EGFR_L858R (10 µM) and in the assay with EGFR_L861Q (10 µM) was inactive: 0 in each case. The “kinase-Nluc reporter destabilization hit call” value (in the assay with EGFR_T790M (10 µM); with EPHA2 (10 µM); with ERBB3 (10 µM); in assay [1] (10 µM)) was inactive: 0 in each case.
Regarding `CC(C)Nc1cc(-c2c[nH]c(C(=O)N[C@H](CO)c3cccc(Cl)c3)c2)c(Cl)cn1` [Ulixertinib (hydrochloride)], the “kinase-Nluc reporter destabilization hit call” value with EGFR (10 µM), with EGFR_G719S (10 µM), in the assay with EGFR_G719S_T790M (10 µM), in the assay with EGFR_L718V (10 µM), with EGFR_L858R (10 µM) and with EGFR_L861Q (10 µM) was inactive: 0 in each case. The “kinase-Nluc reporter destabilization hit call” value (with EGFR_T790M (10 µM); with EPHA2 (10 µM); with ERBB3 (10 µM); in assay [1] (10 µM)) was inactive: 0 throughout.
In the case of `COc1cc2c(cc1OC)-c1c(C)c3ccc(OC)c(OC)c3c[n+]1CC2` [Dehydrocorydaline], the “kinase-Nluc reporter destabilization hit call” value with EGFR (10 µM), with EGFR_G719S (10 µM), in the assay with EGFR_G719S_T790M (10 µM), with EGFR_L718V (10 µM), with EGFR_L858R (10 µM) and with EGFR_L861Q (10 µM) was inactive: 0 throughout. The “kinase-Nluc reporter destabilization hit call” value (with EGFR_T790M (10 µM); with EPHA2 (10 µM); with ERBB3 (10 µM); in assay [1] (10 µM)) was inactive: 0 each time.
Turning to `C#Cc1cccc(Nc2ncnc3cc4c(cc23)OCCOCCOCCO4)c1` [Icotinib], the “kinase-Nluc reporter destabilization hit call” value with EGFR (10 µM), with EGFR_G719S (10 µM), in the assay with EGFR_G719S_T790M (10 µM), with EGFR_L718V (10 µM), in the assay with EGFR_L858R (10 µM) and with EGFR_L861Q (10 µM) was inactive: 0 each time. The “kinase-Nluc reporter destabilization hit call” value (in the assay with EGFR_T790M (10 µM); in the assay with EPHA2 (10 µM); with ERBB3 (10 µM); in assay [1] (10 µM)) was inactive: 0 in each case.
`FC(F)(F)c1ccc(CNc2ccc(Cc3c[nH]c4ncc(Cl)cc34)cn2)cn1` [Pexidartinib (hydrochloride)]: the “kinase-Nluc reporter destabilization hit call” value in the assay with EGFR (10 µM), in the assay with EGFR_G719S (10 µM), with EGFR_G719S_T790M (10 µM), with EGFR_L718V (10 µM), in the assay with EGFR_L858R (10 µM) and in the assay with EGFR_L861Q (10 µM) was inactive: 0 throughout. The “kinase-Nluc reporter destabilization hit call” value (in the assay with EGFR_T790M (10 µM); in the assay with EPHA2 (10 µM); in the assay with ERBB3 (10 µM); in assay [1] (10 µM)) was inactive: 0 in each case.
Consider `COc1ccc2c(c1)C(c1ccc(F)cc1)=C(CN1CCCC1)CO2`, for which the “kinase-Nluc reporter destabilization hit call” value with EGFR (10 µM), with EGFR_G719S (10 µM), with EGFR_G719S_T790M (10 µM), in the assay with EGFR_L718V (10 µM), in the assay with EGFR_L858R (10 µM) and with EGFR_L861Q (10 µM) was inactive: 0 each time. In addition, the “kinase-Nluc reporter destabilization hit call” value (with EGFR_T790M (10 µM); with EPHA2 (10 µM); with ERBB3 (10 µM); in assay [1] (10 µM)) was inactive: 0 each time.
